From article PMC5657617
Results are given in words; binding and its absence hold for the method and conditions named. Tags and fused reporters may be left off the sequences shown.

The chains behind the UniProt entries cited, without tags or fusion partners. Where a name states a change or a piece, a line headed by the entry shows the natural chain unless it says otherwise. A line that says so, or that is headed by a name, gives the form on record, which may keep a tag or linker. Residues count along the entry.
GST-PSIG1^1-606 (Q9FMM3, residues 1-606): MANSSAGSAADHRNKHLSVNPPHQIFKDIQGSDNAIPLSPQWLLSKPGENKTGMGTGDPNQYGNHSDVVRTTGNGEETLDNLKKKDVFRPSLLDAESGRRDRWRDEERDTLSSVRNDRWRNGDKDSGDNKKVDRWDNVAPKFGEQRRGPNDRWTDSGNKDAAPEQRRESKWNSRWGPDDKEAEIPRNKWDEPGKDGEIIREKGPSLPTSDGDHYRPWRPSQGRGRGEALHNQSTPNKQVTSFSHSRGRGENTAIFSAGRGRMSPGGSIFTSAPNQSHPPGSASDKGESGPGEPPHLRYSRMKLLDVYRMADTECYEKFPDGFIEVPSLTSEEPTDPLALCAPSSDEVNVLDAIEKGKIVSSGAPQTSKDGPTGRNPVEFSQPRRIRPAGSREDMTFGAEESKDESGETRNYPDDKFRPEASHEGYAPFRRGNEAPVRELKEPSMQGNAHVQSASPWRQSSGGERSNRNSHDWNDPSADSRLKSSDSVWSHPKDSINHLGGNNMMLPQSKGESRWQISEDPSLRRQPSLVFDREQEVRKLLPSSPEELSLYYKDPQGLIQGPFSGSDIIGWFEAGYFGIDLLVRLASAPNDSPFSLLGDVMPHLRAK
GST-PSIG1^(1-606 W570A/Y575A) (Q9FMM3, form named): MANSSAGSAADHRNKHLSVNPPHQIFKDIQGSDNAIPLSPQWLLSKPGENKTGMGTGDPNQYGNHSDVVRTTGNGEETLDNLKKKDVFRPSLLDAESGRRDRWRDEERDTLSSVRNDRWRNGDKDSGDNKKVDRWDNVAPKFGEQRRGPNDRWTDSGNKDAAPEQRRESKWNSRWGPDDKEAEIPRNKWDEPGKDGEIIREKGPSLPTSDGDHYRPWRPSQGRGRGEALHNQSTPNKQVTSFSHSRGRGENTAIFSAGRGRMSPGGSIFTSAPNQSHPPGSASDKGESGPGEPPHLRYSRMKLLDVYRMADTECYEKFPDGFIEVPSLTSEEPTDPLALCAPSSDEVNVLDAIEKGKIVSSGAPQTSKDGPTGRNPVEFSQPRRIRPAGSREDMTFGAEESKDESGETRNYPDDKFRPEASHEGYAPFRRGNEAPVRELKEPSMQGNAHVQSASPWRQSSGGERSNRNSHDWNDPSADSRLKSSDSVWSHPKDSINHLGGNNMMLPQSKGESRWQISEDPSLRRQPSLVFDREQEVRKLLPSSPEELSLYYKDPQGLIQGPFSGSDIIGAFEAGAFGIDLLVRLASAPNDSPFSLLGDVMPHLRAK
GST-PSIG1^(1-606 Y575A) (Q9FMM3, form named): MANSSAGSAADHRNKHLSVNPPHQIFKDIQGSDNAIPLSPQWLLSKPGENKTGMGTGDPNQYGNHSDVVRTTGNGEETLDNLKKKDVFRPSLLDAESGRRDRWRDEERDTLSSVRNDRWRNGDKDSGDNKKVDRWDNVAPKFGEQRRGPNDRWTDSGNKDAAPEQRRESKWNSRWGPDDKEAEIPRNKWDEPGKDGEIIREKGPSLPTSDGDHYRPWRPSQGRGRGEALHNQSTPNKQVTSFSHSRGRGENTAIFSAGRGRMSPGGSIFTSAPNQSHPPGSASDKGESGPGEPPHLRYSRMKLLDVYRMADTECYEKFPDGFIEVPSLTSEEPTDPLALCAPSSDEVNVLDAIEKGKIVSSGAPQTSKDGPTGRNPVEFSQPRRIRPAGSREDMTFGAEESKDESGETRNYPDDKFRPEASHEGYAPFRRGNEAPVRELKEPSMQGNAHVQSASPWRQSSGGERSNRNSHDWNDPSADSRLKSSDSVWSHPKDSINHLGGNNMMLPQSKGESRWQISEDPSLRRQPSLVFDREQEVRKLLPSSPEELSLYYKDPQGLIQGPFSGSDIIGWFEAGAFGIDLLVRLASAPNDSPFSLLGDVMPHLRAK

What was measured:
Experiment in all cases: pull-down; GST-PSIG1 proteins and HisMBP-SMG7 proteins mixed in 50 mM Tris-HCl pH 7.5, 150 mM NaCl, 1 mM DTT, 0.1% Triton X-100; Glutathione-Sepharose beads, 2 h at 4°C; washed three times with 300 mM NaCl buffer; detected by anti-His or anti-GST immunoblot or CBB; both purified
[1] = biological target: GST-PSIG1^(1-606 W570A/Y575A) (Arabidopsis thaliana) (UniProt Q9FMM3)
[2] = biological target: GST-PSIG1^(1-606 Y575A) (Arabidopsis thaliana) (UniProt Q9FMM3)
[3] = biological target: GST-PSIG1^1-606 (Arabidopsis thaliana) (UniProt Q9FMM3)

| binding [1] | binding [2] | binding [3] | Binder |
| --- | --- | --- | --- |
| no binding | no binding |  | HisMBP-SMG7 (protein, UniProt A9QM73 1-1059) MMTLQMDKTTASSSWERAKSIYDEIAELANKRQKAGNPPDPNLLQLLREKYEAIILESHTFSEQHNIEIPLWQLHYKRIEYFRLHINRVLASSTSTAAQNVKGPSKAEQIAQLKLQFRTFLSEATGFYHDMILKIRSKYGLPLGSFSEDQQSQNLSDKDGKELAEVQKALKSCHRCLIYLGDLARYKGMYAEGDSRSRQYASASSYYLQAASLWPASGNPHHQLAIVASYSRDEFVTTYRYFRSLAVEYPFPTARDNLIVAFDKNRQSYEKLFVPSKDSSKRLTGKGRGKGADISLKDATLVAGPEKDKVTIANEMLKAFSIRFVHLNGILFTRTSLETFFDVLASTSSSLREVISLGSAKELTLGIDTSDSALFIVRVVTMLIFSVHNSKKETEGQSYAEIVQRVEPARNSLTASFELLGLVIEKCVQLGDPSSSYFLPGVLVFVEWLACCPDIALGSDPDDRQTAVRNSFWNQFVVFFNQVLSLGPTFIDDVEDETCFSNMSLYDERETENRLALWEDYELRGFLPLLPAQTILNFSRKHSFGTEGPKEKKARIKRIFAAGKALTSVIKVDQNHVYFDSKKKKFLVGVKPADDFLDSHSSPPKACNALQDNQVMIDHNSPIMQLDQQIYMGEEDDDDEVIVFKPLVTEKRKEASDQIYVPSGGFRKSDQVTTMGDFKALSGSDVAFHENQILQARGNASIQVPASVGANLLGPLQPSTQSQAMHMQQVQTQVQVPASVGANLLGLLLTSTQSQAMHMQQVQTQAVNPQPAQSLAASRLQPIQSQVAQPLPSRVVHFQQTQAQVSHVSPAHSQSTSFGGGSKWSPEEAASLASSLSGFAQLGNGHVMRNEMQGNHGVSYYPAHSLPVHQSYNGNGMGGMPYSQSRTPEAVFPPKIDPVLSSGVVADGLGVQSSLAKKNPISRAFRHLGPPPGFNSVPAKLQKEPAPGSELSGNNHLPVDDYSWLDGYQAQSSRGVGLNSSLNYATSGKPEHLGSTGNGLNGPANFPFPGKQVPTSQVQADFPYFQNPQKDNFVDKNHQSTQLPEQYQGQSTWSSRHFV |
|  |  | no binding | HisMBP-SMG7^G933A (protein, UniProt A9QM73 1-1059) MMTLQMDKTTASSSWERAKSIYDEIAELANKRQKAGNPPDPNLLQLLREKYEAIILESHTFSEQHNIEIPLWQLHYKRIEYFRLHINRVLASSTSTAAQNVKGPSKAEQIAQLKLQFRTFLSEATGFYHDMILKIRSKYGLPLGSFSEDQQSQNLSDKDGKELAEVQKALKSCHRCLIYLGDLARYKGMYAEGDSRSRQYASASSYYLQAASLWPASGNPHHQLAIVASYSRDEFVTTYRYFRSLAVEYPFPTARDNLIVAFDKNRQSYEKLFVPSKDSSKRLTGKGRGKGADISLKDATLVAGPEKDKVTIANEMLKAFSIRFVHLNGILFTRTSLETFFDVLASTSSSLREVISLGSAKELTLGIDTSDSALFIVRVVTMLIFSVHNSKKETEGQSYAEIVQRVEPARNSLTASFELLGLVIEKCVQLGDPSSSYFLPGVLVFVEWLACCPDIALGSDPDDRQTAVRNSFWNQFVVFFNQVLSLGPTFIDDVEDETCFSNMSLYDERETENRLALWEDYELRGFLPLLPAQTILNFSRKHSFGTEGPKEKKARIKRIFAAGKALTSVIKVDQNHVYFDSKKKKFLVGVKPADDFLDSHSSPPKACNALQDNQVMIDHNSPIMQLDQQIYMGEEDDDDEVIVFKPLVTEKRKEASDQIYVPSGGFRKSDQVTTMGDFKALSGSDVAFHENQILQARGNASIQVPASVGANLLGPLQPSTQSQAMHMQQVQTQVQVPASVGANLLGLLLTSTQSQAMHMQQVQTQAVNPQPAQSLAASRLQPIQSQVAQPLPSRVVHFQQTQAQVSHVSPAHSQSTSFGGGSKWSPEEAASLASSLSGFAQLGNGHVMRNEMQGNHGVSYYPAHSLPVHQSYNGNGMGGMPYSQSRTPEAVFPPKIDPVLSSGVVADGLGVQSSLAKKNPISRAFRHLGPPPAFNSVPAKLQKEPAPGSELSGNNHLPVDDYSWLDGYQAQSSRGVGLNSSLNYATSGKPEHLGSTGNGLNGPANFPFPGKQVPTSQVQADFPYFQNPQKDNFVDKNHQSTQLPEQYQGQSTWSSRHFV |
